According to patent US7259140B2, “Heparin-binding peptides and uses thereof” (Thomas Jefferson University, priority 2003, dated 2007):
Some results were stated once for a whole list of compounds, not compound by compound. Part of at least one peptide drawing is inferred or uncertain, most often the ends. Ends that are not written are not given here.

Assay: Hemodynamic effects in rats without prior Lovenox
Conditions: 2 mg per rat, no Lovenox

AKKARAAKKARAAKKARAAKKARAAKKARAAKKARA [(AKKARA)6]
time to recovery/reversal of blood pressure: ≤ 4 min
